The values that follow come from PMC3745395.

Protein sequences, listed by entry. Tags and fused reporters are not part of them.
UniProt Q9EPK8: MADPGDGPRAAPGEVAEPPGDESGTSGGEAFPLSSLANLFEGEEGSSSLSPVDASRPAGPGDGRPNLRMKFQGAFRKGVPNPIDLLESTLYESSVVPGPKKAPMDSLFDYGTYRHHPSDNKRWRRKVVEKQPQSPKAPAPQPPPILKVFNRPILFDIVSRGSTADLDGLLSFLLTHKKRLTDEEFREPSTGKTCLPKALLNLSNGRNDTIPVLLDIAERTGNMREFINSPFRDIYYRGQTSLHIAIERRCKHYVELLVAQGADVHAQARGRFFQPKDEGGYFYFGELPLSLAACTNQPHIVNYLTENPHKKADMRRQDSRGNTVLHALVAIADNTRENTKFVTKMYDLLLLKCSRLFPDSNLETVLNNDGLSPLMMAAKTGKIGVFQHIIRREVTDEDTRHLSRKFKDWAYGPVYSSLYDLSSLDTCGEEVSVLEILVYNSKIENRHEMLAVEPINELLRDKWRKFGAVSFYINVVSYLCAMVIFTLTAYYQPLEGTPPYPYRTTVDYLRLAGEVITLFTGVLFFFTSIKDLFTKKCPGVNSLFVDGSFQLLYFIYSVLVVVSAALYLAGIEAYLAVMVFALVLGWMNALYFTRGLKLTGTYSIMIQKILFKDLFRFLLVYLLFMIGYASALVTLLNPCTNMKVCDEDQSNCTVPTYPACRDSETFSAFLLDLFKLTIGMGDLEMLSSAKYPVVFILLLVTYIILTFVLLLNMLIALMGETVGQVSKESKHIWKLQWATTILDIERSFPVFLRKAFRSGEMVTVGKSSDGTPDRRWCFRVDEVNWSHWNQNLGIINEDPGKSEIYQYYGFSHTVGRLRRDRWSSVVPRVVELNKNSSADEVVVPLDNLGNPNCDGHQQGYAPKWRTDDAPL

Results are given in words; binding and its absence hold for the method and conditions named. In cells and extracts the contact can be indirect. Some binding calls cover weakened binding; strength is not graded here.

Assay [1] concerns the target T1, TRPP2 (mouse (endogenous in orpk collecting duct cells)) (UniProt O35245).
T1 sequence: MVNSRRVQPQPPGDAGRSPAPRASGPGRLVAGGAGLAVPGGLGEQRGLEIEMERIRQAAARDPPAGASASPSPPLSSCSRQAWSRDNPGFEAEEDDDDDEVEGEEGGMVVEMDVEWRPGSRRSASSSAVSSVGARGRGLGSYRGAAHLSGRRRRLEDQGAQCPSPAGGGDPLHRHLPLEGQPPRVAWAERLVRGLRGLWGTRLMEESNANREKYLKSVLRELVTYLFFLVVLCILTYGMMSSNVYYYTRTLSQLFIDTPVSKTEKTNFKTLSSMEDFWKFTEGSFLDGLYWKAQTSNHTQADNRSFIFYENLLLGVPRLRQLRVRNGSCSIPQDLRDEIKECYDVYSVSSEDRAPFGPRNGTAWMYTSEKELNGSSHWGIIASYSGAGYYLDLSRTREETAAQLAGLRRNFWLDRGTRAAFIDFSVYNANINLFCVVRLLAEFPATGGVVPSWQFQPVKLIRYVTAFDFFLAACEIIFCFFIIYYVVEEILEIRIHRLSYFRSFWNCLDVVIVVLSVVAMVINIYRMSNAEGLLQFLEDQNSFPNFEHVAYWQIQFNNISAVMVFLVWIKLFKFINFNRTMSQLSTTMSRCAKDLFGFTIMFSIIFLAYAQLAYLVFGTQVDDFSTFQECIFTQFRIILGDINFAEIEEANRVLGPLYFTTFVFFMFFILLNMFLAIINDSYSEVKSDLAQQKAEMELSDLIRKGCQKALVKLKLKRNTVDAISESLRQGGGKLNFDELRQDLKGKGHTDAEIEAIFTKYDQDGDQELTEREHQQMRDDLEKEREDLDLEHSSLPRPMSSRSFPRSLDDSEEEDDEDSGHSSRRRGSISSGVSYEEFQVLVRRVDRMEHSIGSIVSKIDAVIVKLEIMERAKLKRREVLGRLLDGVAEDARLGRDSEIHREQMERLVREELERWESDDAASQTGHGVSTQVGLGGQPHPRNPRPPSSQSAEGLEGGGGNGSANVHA
The assay is described as follows: co-IP; orpk cilia (+) and cilia (-) cells lysed in Triton buffer; 500 ug protein with 4 ug anti-TRPP2 or anti-TRPV4 antibody overnight at 4 C, protein G beads, western blot for the other protein; n-IgG as control; for EGF treatment cells serum starved and given 10 ng/mL EGF for 30 min. On the technique in general: Immunoblotting shows a protein as a band on a membrane.

Assay [2] addresses T2, TRPP2 of inner medullary collecting duct (IMCD) cells (UniProt O35245).
T2 sequence: T1 sequence
The assay is described as follows: co-IP; endogenous proteins of IMCD cells (Figure S3b); details not shown.

Assay [3] addresses TRPV4 (mouse (endogenous in orpk collecting duct cells)) (UniProt Q9EPK8). The assay is described as follows: co-IP; orpk cilia (+) and cilia (-) cells lysed in Triton buffer; 500 ug protein with 4 ug anti-TRPP2 or anti-TRPV4 antibody overnight at 4 C, protein G beads, western blot for the other protein; n-IgG as control; for EGF treatment cells serum starved and given 10 ng/mL EGF for 30 min.

With TRPV4 (from UniProt Q9EPK8 1-871), the binding result in assay [1] is recorded as “binds”.
For “TRPV4 of inner medullary collecting duct (IMCD) cells (from UniProt Q9EPK8 1-871)”, the binding entry in assay [2] is listed as “binds”.

B1: TRPP2 (protein, UniProt O35245-1 1-966)
chain: T1 sequence
As for B1, the binding result in assay [3] was “binds”.
